Results published in publication PMC10194889.
Results are given in words; binding and its absence hold for the method and conditions named. In cells and extracts the contact can be indirect. Some results given as binding are weak or reduced against the parent protein; the word gives no strength.

By UniProt entry, the sequences of proteins in these tests, tags left out. Residues count along the entry.
UniProt P35579: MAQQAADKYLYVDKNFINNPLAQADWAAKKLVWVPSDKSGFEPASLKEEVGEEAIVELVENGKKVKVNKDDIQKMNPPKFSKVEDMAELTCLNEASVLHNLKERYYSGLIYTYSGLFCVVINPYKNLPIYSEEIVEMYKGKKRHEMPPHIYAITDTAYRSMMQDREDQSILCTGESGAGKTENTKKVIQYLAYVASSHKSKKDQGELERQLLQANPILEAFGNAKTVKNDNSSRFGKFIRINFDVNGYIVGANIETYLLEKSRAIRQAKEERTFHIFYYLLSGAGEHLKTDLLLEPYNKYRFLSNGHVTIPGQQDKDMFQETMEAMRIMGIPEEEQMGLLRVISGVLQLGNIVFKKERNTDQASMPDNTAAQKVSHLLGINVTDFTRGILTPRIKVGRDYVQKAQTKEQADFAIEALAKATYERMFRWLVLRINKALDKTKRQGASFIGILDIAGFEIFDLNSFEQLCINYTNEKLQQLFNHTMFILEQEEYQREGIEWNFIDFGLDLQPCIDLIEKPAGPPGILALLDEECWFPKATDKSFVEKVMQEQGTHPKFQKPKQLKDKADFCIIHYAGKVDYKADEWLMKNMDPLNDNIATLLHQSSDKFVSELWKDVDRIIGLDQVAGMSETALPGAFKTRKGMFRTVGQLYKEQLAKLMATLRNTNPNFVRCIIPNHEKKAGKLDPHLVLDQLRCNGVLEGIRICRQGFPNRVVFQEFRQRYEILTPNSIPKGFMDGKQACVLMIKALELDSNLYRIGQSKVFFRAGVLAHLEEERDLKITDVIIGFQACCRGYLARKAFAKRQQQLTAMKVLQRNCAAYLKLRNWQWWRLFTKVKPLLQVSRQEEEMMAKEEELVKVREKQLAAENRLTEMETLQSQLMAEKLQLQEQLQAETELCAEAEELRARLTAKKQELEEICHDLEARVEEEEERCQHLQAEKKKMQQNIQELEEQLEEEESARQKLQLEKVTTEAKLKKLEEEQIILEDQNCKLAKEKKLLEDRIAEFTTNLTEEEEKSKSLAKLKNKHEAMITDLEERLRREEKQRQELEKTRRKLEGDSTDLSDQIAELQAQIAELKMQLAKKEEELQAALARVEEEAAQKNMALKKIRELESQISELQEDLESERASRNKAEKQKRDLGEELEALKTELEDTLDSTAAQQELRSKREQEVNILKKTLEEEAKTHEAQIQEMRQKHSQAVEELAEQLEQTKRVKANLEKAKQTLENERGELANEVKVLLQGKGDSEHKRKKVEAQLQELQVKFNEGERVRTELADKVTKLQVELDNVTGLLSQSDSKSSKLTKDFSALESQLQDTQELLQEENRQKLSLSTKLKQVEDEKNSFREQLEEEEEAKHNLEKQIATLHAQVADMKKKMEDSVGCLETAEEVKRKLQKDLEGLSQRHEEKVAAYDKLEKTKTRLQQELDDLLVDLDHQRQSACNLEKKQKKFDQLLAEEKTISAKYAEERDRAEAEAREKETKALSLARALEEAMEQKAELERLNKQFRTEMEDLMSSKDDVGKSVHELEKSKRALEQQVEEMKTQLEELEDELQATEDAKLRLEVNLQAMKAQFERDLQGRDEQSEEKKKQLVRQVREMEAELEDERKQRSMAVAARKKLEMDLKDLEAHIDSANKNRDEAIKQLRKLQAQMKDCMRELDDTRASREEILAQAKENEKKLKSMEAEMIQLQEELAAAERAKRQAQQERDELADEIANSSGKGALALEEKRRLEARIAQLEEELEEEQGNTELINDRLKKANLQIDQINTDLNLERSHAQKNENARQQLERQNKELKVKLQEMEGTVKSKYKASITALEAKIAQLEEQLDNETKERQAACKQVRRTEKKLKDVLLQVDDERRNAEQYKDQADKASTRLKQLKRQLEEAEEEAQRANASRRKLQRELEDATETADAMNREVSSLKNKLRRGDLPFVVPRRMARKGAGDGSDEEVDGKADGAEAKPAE
UniProt P21860, residues 20-1342: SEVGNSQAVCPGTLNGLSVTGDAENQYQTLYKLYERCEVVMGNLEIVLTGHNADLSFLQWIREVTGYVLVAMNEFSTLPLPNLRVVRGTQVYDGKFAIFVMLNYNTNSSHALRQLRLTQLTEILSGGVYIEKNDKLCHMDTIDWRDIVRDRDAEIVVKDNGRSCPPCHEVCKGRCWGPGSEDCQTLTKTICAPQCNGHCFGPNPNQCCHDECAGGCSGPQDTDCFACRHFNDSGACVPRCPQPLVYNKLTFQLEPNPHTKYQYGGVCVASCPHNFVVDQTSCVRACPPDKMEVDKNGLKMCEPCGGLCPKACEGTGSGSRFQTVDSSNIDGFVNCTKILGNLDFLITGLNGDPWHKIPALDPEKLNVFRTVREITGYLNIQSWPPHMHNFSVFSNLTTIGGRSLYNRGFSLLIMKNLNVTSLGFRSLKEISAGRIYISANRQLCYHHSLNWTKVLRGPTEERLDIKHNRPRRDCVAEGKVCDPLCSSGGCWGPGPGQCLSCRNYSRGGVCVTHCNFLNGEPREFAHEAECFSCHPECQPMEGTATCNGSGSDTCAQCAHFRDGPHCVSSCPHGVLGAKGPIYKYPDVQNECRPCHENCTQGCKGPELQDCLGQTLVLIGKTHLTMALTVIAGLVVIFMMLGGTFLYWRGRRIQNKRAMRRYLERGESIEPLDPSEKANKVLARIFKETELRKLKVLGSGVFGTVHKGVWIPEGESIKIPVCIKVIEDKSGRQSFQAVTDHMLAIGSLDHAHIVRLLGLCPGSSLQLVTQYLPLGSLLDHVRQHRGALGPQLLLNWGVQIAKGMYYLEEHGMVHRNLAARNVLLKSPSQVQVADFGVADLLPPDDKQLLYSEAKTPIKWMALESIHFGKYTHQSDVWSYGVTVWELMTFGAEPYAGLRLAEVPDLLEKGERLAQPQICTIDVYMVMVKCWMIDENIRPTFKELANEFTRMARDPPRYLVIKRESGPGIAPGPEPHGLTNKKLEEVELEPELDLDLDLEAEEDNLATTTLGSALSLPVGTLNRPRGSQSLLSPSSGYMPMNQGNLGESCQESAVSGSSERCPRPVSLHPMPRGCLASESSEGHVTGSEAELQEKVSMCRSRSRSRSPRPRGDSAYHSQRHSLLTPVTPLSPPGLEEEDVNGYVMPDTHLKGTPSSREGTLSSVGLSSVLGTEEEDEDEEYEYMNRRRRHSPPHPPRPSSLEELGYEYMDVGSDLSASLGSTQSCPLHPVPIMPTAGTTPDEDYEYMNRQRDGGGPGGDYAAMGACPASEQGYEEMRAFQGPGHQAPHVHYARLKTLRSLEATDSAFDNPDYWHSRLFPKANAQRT

Assays:
[1] = target: non-muscle myosin IIA (human (endogenous in BT474 and MDA-MB-453)) (UniProt P35579); test: co-IP; BT474 and MDA-MB-453 cells treated with 200 nM neratinib or DMSO for 24 h; 1% NP40 lysis buffer; cleared lysate incubated with HER3 (2F12), IgG or NMIIA antibody overnight at 4 C, Protein A magnetic beads; NMIIA and HER3 immunoblots
[2] = target: HER3 (human (endogenous in BT474 and MDA-MB-453)) (UniProt P21860); test: as above

binding [1]	binding [2]	Substance
binds		HER3 (from UniProt P21860 20-1342) (receptor)
	binds	non-muscle myosin IIA (from UniProt P35579 1-1960)
